Source: PMC9865707, “Structural Insights of the DciA Helicase Loader in Its Relationship with DNA”
The exact form of at least one protein or probe is not confirmed. At least one verdict rests on a figure or table, not on a statement of the authors. Where a protein sequence is shown, tags need not be part of it.

Target: T1, DrSSB (Deinococcus radiodurans) (UniProt Q9RY51)
T1 sequence (looked up, limits assumed): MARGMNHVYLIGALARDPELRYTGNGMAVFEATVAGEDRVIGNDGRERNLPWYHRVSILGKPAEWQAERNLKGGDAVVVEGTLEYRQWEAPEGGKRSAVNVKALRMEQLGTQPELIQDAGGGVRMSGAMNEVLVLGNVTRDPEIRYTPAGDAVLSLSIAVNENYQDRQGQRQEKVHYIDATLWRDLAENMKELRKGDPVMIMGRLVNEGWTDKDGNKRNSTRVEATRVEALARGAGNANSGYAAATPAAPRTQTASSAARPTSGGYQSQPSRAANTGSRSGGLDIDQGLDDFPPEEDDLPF
Assay: BLI
Details: 1 mM ATP, BLI: 50 mM Hepes pH 7.0, 150 mM NaCl, 0.1% Tween, temperature not stated, recombinant protein, protein details: N-terminal 6His

Sequence | binding result (label: 5' biotin on strand 1) | binding result (label: 5' biotin, single-stranded DNA)
AAGCGTGGTGAAACCTACCTCTGATTCGAAACCTTCACTTTACGTGGTCTGGCGTGGTGAATGTTCGTCGGCGTGCTCGA / CCAGGAATACGGCAAGTTGGAGGCCGGGCTGGATGGAGACTAAGCTTTGGAAGTGAAGGTTTCGAATCAGAGGTAGGTTTCACCACGC [foDNA oso23/oso18] | binds | 
AAGCGTGGTGAAACCTACCTCTGATTCGAAACCTTCACTTTACGTGGTCTGGCGTGGTGAATGTTCGTCGGCGTGCTCGA [ssDNA oso23] |  | binds
